Experimental data published in publication doi:10.1101/2025.05.13.653837.
These are yes or no findings as the source states them, for the method shown. In cells and extracts the contact can be indirect. Some results given as binding are weak or reduced against the parent protein; the word gives no strength. Tags and fused reporters may be left off the sequences shown.

By UniProt entry, the sequences of proteins in these tests, tags left out.
UniProt Q96RR4: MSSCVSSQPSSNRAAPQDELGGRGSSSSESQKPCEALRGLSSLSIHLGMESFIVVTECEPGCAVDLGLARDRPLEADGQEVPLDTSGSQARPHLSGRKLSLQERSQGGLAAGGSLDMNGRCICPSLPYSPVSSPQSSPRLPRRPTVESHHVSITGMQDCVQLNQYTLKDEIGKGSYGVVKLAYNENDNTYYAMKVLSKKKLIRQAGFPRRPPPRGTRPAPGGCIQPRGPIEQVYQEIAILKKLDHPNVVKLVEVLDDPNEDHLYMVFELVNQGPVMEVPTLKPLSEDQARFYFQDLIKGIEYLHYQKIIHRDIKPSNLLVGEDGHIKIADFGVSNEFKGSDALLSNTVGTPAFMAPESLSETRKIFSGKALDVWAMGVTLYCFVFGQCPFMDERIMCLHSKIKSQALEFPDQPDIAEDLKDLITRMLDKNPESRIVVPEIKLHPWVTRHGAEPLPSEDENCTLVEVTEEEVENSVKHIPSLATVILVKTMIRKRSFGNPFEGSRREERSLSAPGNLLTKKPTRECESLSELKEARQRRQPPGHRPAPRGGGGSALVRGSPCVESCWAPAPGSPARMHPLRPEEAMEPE

Target: Flag-tagged CAMKK2-LF (long isoform, exon 16 included), transiently expressed in HEK293 (human) (UniProt Q96RR4)
Assay: co-IP

- binding: binds
B1: MYC-tagged 14-3-3 eta (YWHAH) (protein, UniProt Q04917 1-246)
chain: MGDREQLLQRARLAEQAERYDDMASAMKAVTELNEPLSNEDRNLLSVAYKNVVGARRSSWRVISSIEQKTMADGNEKKLEKVKAYREKIEKELETVCNDVLSLLDKFLIKNCNDFQYESKVFYLKMKGDYYRYLAEVASGEKKNSVVEASEAAYKEAFEISKEQMQPTHPIRLGLALNFSVFYYEIQNAPEQACLLAKQAFDDAIAELDTLNEDSYKDSTLIMQLLRDNLTLWTSDQQDEEAGEGN
